Laboratory results taken from paper PMC8707790.

The chains behind the UniProt entries cited, without tags or fusion partners. Where a name states a change or a piece, a line headed by the entry shows the natural chain unless it says otherwise.
UniProt O95292: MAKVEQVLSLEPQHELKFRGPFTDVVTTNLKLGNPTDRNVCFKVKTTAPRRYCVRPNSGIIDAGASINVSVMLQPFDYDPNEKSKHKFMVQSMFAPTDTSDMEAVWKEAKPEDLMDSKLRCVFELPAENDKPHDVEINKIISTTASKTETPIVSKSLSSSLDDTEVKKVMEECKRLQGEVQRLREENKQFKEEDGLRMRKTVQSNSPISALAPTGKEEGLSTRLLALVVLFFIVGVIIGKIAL

Target: HA-FRB-P56S-VAPB (human) (UniProt O95292)
Experiment: proximity labelling; RAPIDS as before but with the nuclear reporter FKBP12-cNLS-GFP2-APEX2; Neutravidin beads, quantitative mass spectrometry (label swap) and Western blot

binding | Binder
no binding | endogenous OSBPL9 (protein, UniProt Q96SU4 1-736) MASIMEGPLSKWTNVMKGWQYRWFVLDYNAGLLSYYTSKDKMMRGSRRGCVRLRGAVIGIDDEDDSTFTITVDQKTFHFQARDADEREKWIHALEETILRHTLQLQGLDSGFVPSVQDFDKKLTEADAYLQILIEQLKLFDDKLQNCKEDEQRKKIETLKETTNSMVESIKHCIVLLQIAKDQSNAEKHADGMISTINPVDAIYQPSPLEPVISTMPSQTVLPPEPVQLCKSEQRPSSLPVGPVLATLGHHQTPTPNSTGSGHSPPSSSLTSPSHVNLSPNTVPEFSYSSSEDEFYDADEFHQSGSSPKRLIDSSGSASVLTHSSSGNSLKRPDTTESLNSSLSNGTSDADLFDSHDDRDDDAEAGSVEEHKSVIMHLLSQVRLGMDLTKVVLPTFILERRSLLEMYADFFAHPDLFVSISDQKDPKDRMVQVVKWYLSAFHAGRKGSVAKKPYNPILGEIFQCHWTLPNDTEENTELVSEGPVPWVSKNSVTFVAEQVSHHPPISAFYAECFNKKIQFNAHIWTKSKFLGMSIGVHNIGQGCVSCLDYDEHYILTFPNGYGRSILTVPWVELGGECNINCSKTGYSANIIFHTKPFYGGKKHRITAEIFSPNDKKSFCSIEGEWNGVMYAKYATGENTVFVDTKKLPIIKKKVRKLEDQNEYESRSLWKDVTFNLKIRDIDAATEAKHRLEERQRAEARERKEKEIQWETRLFHEDGECWVYDEPLLKRLGAAKH
no binding | endogenous ACBD5 (protein, UniProt Q5T8D3 1-534) MFQFHAGSWESWCCCCLIPADRPWDRGQHWQLEMADTRSVHETRFEAAVKVIQSLPKNGSFQPTNEMMLKFYSFYKQATEGPCKLSRPGFWDPIGRYKWDAWSSLGDMTKEEAMIAYVEEMKKIIETMPMTEKVEELLRVIGPFYEIVEDKKSGRSSDITSVRLEKISKCLEDLGNVLTSTPNAKTVNGKAESSDSGAESEEEEAQEEVKGAEQSDNDKKMMKKSADHKNLEVIVTNGYDKDGFVQDIQNDIHASSSLNGRSTEEVKPIDENLGQTGKSAVCIHQDINDDHVEDVTGIQHLTSDSDSEVYCDSMEQFGQEESLDSFTSNNGPFQYYLGGHSSQPMENSGFREDIQVPPGNGNIGNMQVVAVEGKGEVKHGGEDGRNNSGAPHREKRGGETDEFSNVRRGRGHRMQHLSEGTKGRQVGSGGDGERWGSDRGSRGSLNEQIALVLMRLQEDMQNVLQRLQKLETLTALQAKSSTSTLQTAPQPTSQRPSWWPFEMSPGVLTFAIIWPFIAQWLVYLYYQRRRRKLN
no binding | endogenous TMEM43 (protein, UniProt Q9BTV4 1-400) MAANYSSTSTRREHVKVKTSSQPGFLERLSETSGGMFVGLMAFLLSFYLIFTNEGRALKTATSLAEGLSLVVSPDSIHSVAPENEGRLVHIIGALRTSKLLSDPNYGVHLPAVKLRRHVEMYQWVETEESREYTEDGQVKKETRYSYNTEWRSEIINSKNFDREIGHKNPSAMAVESFMATAPFVQIGRFFLSSGLIDKVDNFKSLSLSKLEDPHVDIIRRGDFFYHSENPKYPEVGDLRVSFSYAGLSGDDPDLGPAHVVTVIARQRGDQLVPFSTKSGDTLLLLHHGDFSAEEVFHRELRSNSMKTWGLRAAGWMAMFMGLNLMTRILYTLVDWFPVFRDLVNIGLKAFAFCVATSLTLLTVAAGWLFYRPLWALLIAGLALVPILVARTRVPAKKLE

No constants are given. Whether binding was seen depends on the method and setting. In cells and extracts the contact can be indirect. A yes stands for co-enrichment or nearness to the bait. Other partners may have been found. A no says only that the protein was not detected with the bait.
